Assay results as given in PMC7862700.
The entries are a selection whose mix differs from that of the whole data set. For part of these data: At the low end of the ranking, values are background and their order means little. Some of the results follow. For part of these data: The source does not settle which construct or isoform was used.

Tests used:
Experiment in all cases: DAPPL (digital affinity profiling via proximity ligation, sequencing)
Details in all cases: 10 mM Tris-HCl pH 7.5, 50 mM NaCl, 1 mM DTT, 4% glycerol, room temperature, 30 min; GST-TFs on glutathione beads, 16-mer random dsDNA library, 0.1% …; high values mean tight binding; double strand, one strand shown; scale: fold enrichment (6-mer frequency, TF over GST control)
GABPA = target: T1, GABPA (UniProt Q06546)
T1 sequence: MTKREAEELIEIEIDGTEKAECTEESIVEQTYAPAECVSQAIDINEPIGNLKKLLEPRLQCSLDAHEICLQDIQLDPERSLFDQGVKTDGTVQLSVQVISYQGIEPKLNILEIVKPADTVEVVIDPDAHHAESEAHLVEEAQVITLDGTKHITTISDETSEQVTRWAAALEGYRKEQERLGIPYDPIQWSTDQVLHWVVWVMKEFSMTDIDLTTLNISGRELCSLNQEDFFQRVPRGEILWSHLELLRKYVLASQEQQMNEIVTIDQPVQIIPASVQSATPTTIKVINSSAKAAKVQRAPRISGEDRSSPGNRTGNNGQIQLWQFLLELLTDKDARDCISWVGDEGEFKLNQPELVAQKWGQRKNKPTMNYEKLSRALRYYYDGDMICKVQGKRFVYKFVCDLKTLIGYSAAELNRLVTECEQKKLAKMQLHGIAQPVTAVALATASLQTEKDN

ETS1 = target: T2, ETS1 (UniProt P14921)
T2 sequence: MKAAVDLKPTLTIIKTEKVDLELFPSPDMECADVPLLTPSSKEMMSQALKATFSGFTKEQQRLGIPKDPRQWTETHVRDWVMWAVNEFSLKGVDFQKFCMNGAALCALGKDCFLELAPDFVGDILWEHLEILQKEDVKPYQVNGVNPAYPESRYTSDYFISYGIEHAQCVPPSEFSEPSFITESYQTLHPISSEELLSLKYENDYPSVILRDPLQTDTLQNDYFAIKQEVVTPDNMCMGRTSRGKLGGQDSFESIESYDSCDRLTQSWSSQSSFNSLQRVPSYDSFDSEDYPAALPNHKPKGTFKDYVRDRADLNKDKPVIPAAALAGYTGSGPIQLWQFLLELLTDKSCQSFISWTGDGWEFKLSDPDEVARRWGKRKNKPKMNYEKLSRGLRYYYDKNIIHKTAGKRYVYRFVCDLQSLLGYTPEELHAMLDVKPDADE

SPDEF = target: T3, SPDEF (UniProt O95238)
T3 sequence: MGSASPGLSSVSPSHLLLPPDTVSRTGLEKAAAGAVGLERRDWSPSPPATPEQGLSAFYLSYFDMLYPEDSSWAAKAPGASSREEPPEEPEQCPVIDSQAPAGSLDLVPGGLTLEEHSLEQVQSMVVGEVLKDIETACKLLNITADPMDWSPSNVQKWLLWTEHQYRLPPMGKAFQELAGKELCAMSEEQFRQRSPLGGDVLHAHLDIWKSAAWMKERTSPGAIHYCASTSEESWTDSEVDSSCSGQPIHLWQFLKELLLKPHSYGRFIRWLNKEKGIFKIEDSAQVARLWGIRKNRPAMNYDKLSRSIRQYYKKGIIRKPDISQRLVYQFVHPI

CAGCCG
binding signal (GABPA): 0.632 | binding signal (ETS1): 0.603 | binding signal (SPDEF): 0.705

GGAATC
binding signal (GABPA): 0.736 | binding signal (ETS1): 0.726 | binding signal (SPDEF): 0.748

GTGACG
binding signal (GABPA): 0.68 | binding signal (ETS1): 0.687 | binding signal (SPDEF): 0.684

TCAGGG
binding signal (GABPA): 0.778 | binding signal (ETS1): 0.779 | binding signal (SPDEF): 0.707

AGTAAG
binding signal (GABPA): 0.741 | binding signal (ETS1): 0.747 | binding signal (SPDEF): 0.707

GGGTGG
binding signal (GABPA): 0.674 | binding signal (ETS1): 0.845 | binding signal (SPDEF): 0.699
